According to the supplement of paper PMC4604168 (melanoma cell lines):
Some of the results follow. Many values rest on one well or one pass, so single values are uncertain.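 Imaging used 1,536-well plates; nuclei positive for cleaved PARP by antibody were divided by total DNA-stained nuclei to yield the apoptosis fraction. Doses for screening kept most cells viable, and cell lines differ markedly in resting and induced cleaved-PARP levels.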

Key:
Experiment in all cases: cleaved PARP positive nuclei fraction relative to DMSO control; melanoma cells; higher = more apoptosis
Details in all cases: library dose: low library concentration; 72 h
501Mel = system: 501Mel
A101D = system: A101D
A2058 = system: A2058
A375 = system: A375
C32 = system: C32
CBRC008 = system: CBRC008 (line from a melanoma biopsy)
CBRC014 = system: CBRC014 (line from a melanoma biopsy)
CBRC016 = system: CBRC016 (line from a melanoma biopsy)
CBRC017 = system: CBRC017 (line from a melanoma biopsy)
CBRC034 = system: CBRC034 (line from a melanoma biopsy)
COLO792 = system: COLO792
COLO800 = system: COLO800
COLO829 = system: COLO829
G361 = system: G361
IPC-298 = system: IPC-298
IST-MEL1 = system: IST-MEL1
LB2518-MEL = system: LB2518-MEL
LOXIMVI = system: LOXIMVI
MEL-HO = system: MEL-HO

| Structure (SMILES) | cleaved PARP positive nuclei fraction (501Mel) [%] | cleaved PARP positive nuclei fraction (A101D) [%] | cleaved PARP positive nuclei fraction (A2058) [%] | cleaved PARP positive nuclei fraction (A375) [%] | cleaved PARP positive nuclei fraction (C32) [%] | cleaved PARP positive nuclei fraction (CBRC008) [%] | cleaved PARP positive nuclei fraction (CBRC014) [%] | cleaved PARP positive nuclei fraction (CBRC016) [%] | cleaved PARP positive nuclei fraction (CBRC017) [%] | cleaved PARP positive nuclei fraction (CBRC034) [%] | cleaved PARP positive nuclei fraction (COLO792) [%] | cleaved PARP positive nuclei fraction (COLO800) [%] | cleaved PARP positive nuclei fraction (COLO829) [%] | cleaved PARP positive nuclei fraction (G361) [%] | cleaved PARP positive nuclei fraction (IPC-298) [%] | cleaved PARP positive nuclei fraction (IST-MEL1) [%] | cleaved PARP positive nuclei fraction (LB2518-MEL) [%] | cleaved PARP positive nuclei fraction (LOXIMVI) [%] | cleaved PARP positive nuclei fraction (MEL-HO) [%] |
| --- | --- | --- | --- | --- | --- | --- | --- | --- | --- | --- | --- | --- | --- | --- | --- | --- | --- | --- | --- |
| O=C(/C=C/c1cccnc1)NCCCCC1CCN(C(=O)c2ccccc2)CC1 + CNC(=O)c1cc(Oc2ccc(NC(=O)Nc3ccc(Cl)c(C(F)(F)F)c3)cc2)ccn1 [sorafenib] (first compound 0.01 µM, partner dose 0.4 µM) | 171 | 118 | 123 | 82.3 | 79.9 | 4140 | 91 | 1170 | 572 | 1300 | 397 | 68.1 | 243 | 4040 | 211 | 106 | 452 | 113 | 223 |
| CC[C@]1(O)C[C@H]2CN(CCc3c([nH]c4ccccc34)[C@@](C(=O)OC)(c3cc4c(cc3OC)N(C=O)[C@H]3[C@@](O)(C(=O)OC)[C@H](OC(C)=O)[C@]5(CC)C=CCN6CC[C@]43[C@@H]65)C2)C1 [vincristine] + C[C@]1(c2nc3c(C(N)=O)cccc3[nH]2)CCCN1 [Veliparib] (first compound 0.0001 µM, partner dose 1.4 µM) | 86.6 | 212 | 1190 | 387 | 113 | 363 | 131 | 346 | 163 | 46 | 148 | 114 | 159 | 99.4 | 82.7 | 37.3 | 124 | 157 | 36.5 |
| O=c1[nH]nc(Sc2ncc([N+](=O)[O-])s2)n1-c1ccc2c(c1)OCCO2 + Nc1ccn([C@@H]2O[C@H](CO)[C@@H](O)C2(F)F)c(=O)n1 [gemcitabine] (first compound 0.2 µM, partner dose 0.0004 µM) | 74.5 | 43.1 | 192 | 155 | 83 | 86.2 | 125 | 384 | 280 | 77.9 | 195 | 147 | 169 | 98.4 | 186 | 166 | 60.6 | 32.8 | 88.7 |
| N#CC[C@H](C1CCCC1)n1cc(-c2ncnc3[nH]ccc23)cn1 [ruxolitinib] + C=CCNC1=C2C[C@@H](C)C[C@H](OC)[C@H](O)[C@@H](C)/C=C(\C)[C@H](OC(N)=O)[C@@H](OC)/C=C\C=C(/C)C(=O)NC(=CC1=O)C2=O [Tanespimycin] (first compound 1 µM, partner dose 0.002 µM) | 142 | 130 | 321 | 78.7 | 89.3 | 158 | 125 | 76.4 | 115 | 73.5 | 99.4 | 103 | 58.1 | 183 | 112 | 130 | 93.8 | 131 | 89.4 |
| CC[C@]1(O)C[C@H]2CN(CCc3c([nH]c4ccccc34)[C@@](C(=O)OC)(c3cc4c(cc3OC)N(C=O)[C@H]3[C@@](O)(C(=O)OC)[C@H](OC(C)=O)[C@]5(CC)C=CCN6CC[C@]43[C@@H]65)C2)C1 [vincristine] + OCc1c[nH]c2ccccc12 [Indole-3-carbinol] (first compound 0.0001 µM, partner dose 0.8 µM) | 109 | 104 | 1080 | 620 | 96.5 | 204 | 97.6 | 71.9 | 299 | 59.6 | 26.9 | 158 | 73.2 | 159 | 90.7 | 73 | 266 | 156 | 79.7 |
| Cc1cn(-c2cc(NC(=O)c3ccc(C)c(Nc4nccc(-c5cccnc5)n4)c3)cc(C(F)(F)F)c2)cn1 [nilotinib] + CNC(=O)c1cc(Oc2ccc(NC(=O)Nc3ccc(Cl)c(C(F)(F)F)c3)cc2)ccn1 [sorafenib] (first compound 0.2 µM, partner dose 0.4 µM) | 87 | 90.5 | 101 | 45.4 | 86.3 | 53.4 | 88.4 | 158 | 86.4 | 53.5 | 81.1 | 46.1 | 123 | 98.4 | 84.3 | 60.2 | 105 | 160 | 82.2 |
| Cc1ccc(Nc2nccc(N(C)c3ccc4c(C)n(C)nc4c3)n2)cc1S(N)(=O)=O [Pazopanib] + Cn1cnc2c(F)c(Nc3ccc(Br)cc3Cl)c(C(=O)NOCCO)cc21 [selumetinib] (first compound 0.4 µM, partner dose 0.015 µM) | 2190 | 29.4 | 71.7 | 112 | 93 | 100 | 80.4 | 94.6 | 107 | 243 | 115 | 151 | 40.1 | 282 | 149 | 174 | 67.8 | 107 | 59.3 |
| COc1cc([C@@H]2c3cc4c(cc3[C@@H](O[C@@H]3O[C@@H]5CO[C@@H](C)O[C@H]5[C@H](O)[C@H]3O)[C@H]3COC(=O)[C@H]23)OCO4)cc(OC)c1O [etoposide] + O=c1[nH]nc(Sc2ncc([N+](=O)[O-])s2)n1-c1ccc2c(c1)OCCO2 [BI78D3] (first compound 0.02 µM, partner dose 0.2 µM) | 49.3 | 45.1 | 266 | 199 | 78.6 | 206 | 98.1 | 185 | 112 | 122 | 171 | 143 | 120 | 80 | 131 | 61 | 133 | 128 | 44.5 |
| N#CC[C@H](C1CCCC1)n1cc(-c2ncnc3[nH]ccc23)cn1 [ruxolitinib] + Cn1nnc2c(C(N)=O)ncn2c1=O [temozolomide] (first compound 1 µM, partner dose 2 µM) | 69.4 | 228 | 120 | 70.6 | 72.6 | 54.2 | 103 | 118 | 176 | 59.6 | 126 | 44.6 | 58.4 | 140 | 81.8 | 66.6 | 55.8 | 279 | 165 |
| Cc1ccc(Nc2nccc(N(C)c3ccc4c(C)n(C)nc4c3)n2)cc1S(N)(=O)=O [Pazopanib] + O=C(O)c1ccc2c(c1)nc(Nc1cccc(Cl)c1)c1ccncc12 [CX4945] (first compound 0.4 µM, partner dose 0.4 µM) | 84.1 | 268 | 114 | 200 | 65.1 | 122 | 104 | 161 | 161 | 96.7 | 128 | 81.6 | 182 | 111 | 345 | 232 | 120 | 21.8 | 59.9 |
| CC[C@]1(O)C[C@H]2CN(CCc3c([nH]c4ccccc34)[C@@](C(=O)OC)(c3cc4c(cc3OC)N(C=O)[C@H]3[C@@](O)(C(=O)OC)[C@H](OC(C)=O)[C@]5(CC)C=CCN6CC[C@]43[C@@H]65)C2)C1 [vincristine] + Nc1ccn([C@@H]2O[C@H](CO)[C@@H](O)C2(F)F)c(=O)n1 [gemcitabine] (first compound 0.0001 µM, partner dose 0.0004 µM) | 114 | 66.2 | 228 | 296 | 69.2 | 85.1 | 102 | 73.3 | 138 | 334 | 111 | 83.7 | 85.8 | 130 | 90.3 | 314 | 55.2 | 186 | 134 |
| O=C(/C=C/c1cccnc1)NCCCCC1CCN(C(=O)c2ccccc2)CC1 + O=C(O)[C@@H]1[O][Sb](=[O])([O][Sb]2(=[O])[O][C@H]([C@H](O)CO)[C@H](O)[C@H](C(=O)O)[O]2)[O][C@H]([C@H](O)CO)[C@@H]1O [stibogluconate] (first compound 0.01 µM, partner dose 2 µM) | 80.2 | 92.3 | 62.3 | 115 | 74.3 | 2380 | 85.9 | 679 | 889 | 513 | 728 | 132 | 201 | 4250 | 218 | 117 | 189 | 198 | 120 |
| O=C(Nc1cc(C(F)(F)F)cc(C(F)(F)F)c1)c1cc(Cl)ccc1O + C=CCNC1=C2C[C@@H](C)C[C@H](OC)[C@H](O)[C@@H](C)/C=C(\C)[C@H](OC(N)=O)[C@@H](OC)/C=C\C=C(/C)C(=O)NC(=CC1=O)C2=O [Tanespimycin] (first compound 0.016 µM, partner dose 0.002 µM) | 89.6 | 150 | 109 | 137 | 287 | 105 | 110 | 69.7 | 130 | 41.9 | 113 | 152 | 200 | 106 | 113 | 65.2 | 176 | 96.6 | 84.3 |
| Cc1ccc(Nc2nccc(N(C)c3ccc4c(C)n(C)nc4c3)n2)cc1S(N)(=O)=O [Pazopanib] + Nc1cccc2c1CN(C1CCC(=O)NC1=O)C2=O [lenalidomide] (first compound 0.4 µM, partner dose 1 µM) | 69.1 | 95.5 | 98.4 | 177 | 37.1 | 87.3 | 123 | 388 | 71.9 | 34.6 | 91.1 | 71.2 | 127 | 97.8 | 105 | 56.9 | 115 | 272 | 80.7 |
| Cc1cn(-c2cc(NC(=O)c3ccc(C)c(Nc4nccc(-c5cccnc5)n4)c3)cc(C(F)(F)F)c2)cn1 [nilotinib] + Cc1cc(Nc2cc(N3CCN(C)CC3)nc(/C=C/c3ccccc3)n2)n[nH]1 [ENMD2076] (first compound 0.2 µM, partner dose 0.04 µM) | 111 | 180 | 145 | 81.3 | 276 | 121 | 106 | 129 | 115 | 96.9 | 82.7 | 95 | 71.4 | 124 | 172 | 84.8 | 185 | 15.4 | 187 |
| N#CC[C@H](C1CCCC1)n1cc(-c2ncnc3[nH]ccc23)cn1 [ruxolitinib] + Cc1nc(Nc2ncc(C(=O)Nc3c(C)cccc3Cl)s2)cc(N2CCN(CCO)CC2)n1 [dasatanib] (first compound 1 µM, partner dose 0.004 µM) | 76.7 | 132 | 121 | 41.9 | 81.1 | 44.1 | 109 | 125 | 115 | 192 | 107 | 92.7 | 68.8 | 100 | 84.6 | 135 | 214 | 163 | 81 |

As a short view, part of the list above.

| Structure (SMILES) | cleaved PARP positive nuclei fraction (501Mel) [%] | cleaved PARP positive nuclei fraction (A101D) [%] | cleaved PARP positive nuclei fraction (A2058) [%] | cleaved PARP positive nuclei fraction (A375) [%] | cleaved PARP positive nuclei fraction (C32) [%] | cleaved PARP positive nuclei fraction (CBRC008) [%] | cleaved PARP positive nuclei fraction (CBRC014) [%] | cleaved PARP positive nuclei fraction (CBRC016) [%] | cleaved PARP positive nuclei fraction (CBRC017) [%] | cleaved PARP positive nuclei fraction (CBRC034) [%] | cleaved PARP positive nuclei fraction (COLO792) [%] | cleaved PARP positive nuclei fraction (COLO800) [%] | cleaved PARP positive nuclei fraction (COLO829) [%] | cleaved PARP positive nuclei fraction (G361) [%] | cleaved PARP positive nuclei fraction (IPC-298) [%] | cleaved PARP positive nuclei fraction (IST-MEL1) [%] | cleaved PARP positive nuclei fraction (LB2518-MEL) [%] | cleaved PARP positive nuclei fraction (LOXIMVI) [%] | cleaved PARP positive nuclei fraction (MEL-HO) [%] |
| --- | --- | --- | --- | --- | --- | --- | --- | --- | --- | --- | --- | --- | --- | --- | --- | --- | --- | --- | --- |
| CC[C@]1(O)C[C@H]2CN(CCc3c([nH]c4ccccc34)[C@@](C(=O)OC)(c3cc4c(cc3OC)N(C=O)[C@H]3[C@@](O)(C(=O)OC)[C@H](OC(C)=O)[C@]5(CC)C=CCN6CC[C@]43[C@@H]65)C2)C1 [vincristine] + C[C@]1(c2nc3c(C(N)=O)cccc3[nH]2)CCCN1 [Veliparib] (first compound 0.0001 µM, partner dose 1.4 µM) | 86.6 | 212 | 1190 | 387 | 113 | 363 | 131 | 346 | 163 | 46 | 148 | 114 | 159 | 99.4 | 82.7 | 37.3 | 124 | 157 | 36.5 |
| O=c1[nH]nc(Sc2ncc([N+](=O)[O-])s2)n1-c1ccc2c(c1)OCCO2 + Nc1ccn([C@@H]2O[C@H](CO)[C@@H](O)C2(F)F)c(=O)n1 [gemcitabine] (first compound 0.2 µM, partner dose 0.0004 µM) | 74.5 | 43.1 | 192 | 155 | 83 | 86.2 | 125 | 384 | 280 | 77.9 | 195 | 147 | 169 | 98.4 | 186 | 166 | 60.6 | 32.8 | 88.7 |
